# Test results reported in the supplement of paper PMC12542422.
# Structures can show the parent of a compound that is named as a salt. ± gives the standard deviation of the averaged measurements. This is one part of the list. Values are raw readings; no control value is given beside them.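 HeLa cells imaged for ribosome-assembly readouts (ENP1 staining with or without export block, or inducible tagged ribosomal protein reporters); machine learning classified each cell's signal location against solvent (DMSO) controls. Hits exceeded the DMSO false-positive mean by five standard deviations, then were visually confirmed; three biological replicates.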
# Test system: HeLa RPL29-GFP reporter
# Assay: fraction of reporter-positive cells with nuclear (nucleolar or nucleolar/nucleoplasmic) RPL29-GFP (MainHitrate); higher = more cells with nucleolar/nuclear readout signal (for ENP1 -LMB: less RNAPI inhibition; for +LMB ENP1 and RP reporters: stronger nuclear/nucleolar retention, i.e. ribosome biogenesis defect)
# Details: concentration: 1 µM; treatment time: 6 h
row,SMILES,fraction of reporter-positive cells with nuclear
1,NS(=O)(=O)c1cc2c(cc1C(F)(F)F)NC(Cc1ccccc1)NS2(=O)=O (stereo not drawn) [Bendroflumethiazide],0.283 ± 0.23
2,CS(=O)(=O)CCNCc1ccc(-c2ccc3ncnc(Nc4ccc(OCc5cccc(F)c5)c(Cl)c4)c3c2)o1 [Lapatinib Ditosylate (Tykerb)],0.187 ± 0.058
3,Nc1ccn([C@@H]2O[C@H](CO)[C@@H](O)[C@@H]2O)c(=O)n1 [Cytarabine],0.148 ± 0.061
4,CC(C)(S)[C@@H](N)C(=O)O [Penicillamine (Cuprimine)],0.233 ± 0.074
5,O=c1cc[nH]c(=O)[nH]1 [Uracil],0.214 ± 0.049
6,C[C@@]12C[C@@]3(O)O[C@@H](O1)[C@]1(COC(=O)c4ccccc4)[C@H]3C[C@@]12O[C@@H]1O[C@H](CO)[C@@H](O)[C@H](O)[C@H]1O [Paeoniflorin],0.215 ± 0.09
7,c1ccc(C2CN3CCSC3=N2)cc1 (stereo not drawn) [Tetramisole HCl],0.219 ± 0.059
8,NC(=O)N/N=C/c1ccc([N+](=O)[O-])o1 [Nitrofurazone (Nitrofural)],0.21 ± 0.071
9,O=C(O)Cc1ccccc1Nc1c(Cl)cccc1Cl [Diclofenac],0.199 ± 0.062
10,CC(C(=O)O)c1ccc2c(c1)[nH]c1ccc(Cl)cc12 (stereo not drawn) [Carprofen],0.204 ± 0.067
11,CC(=O)Nc1ccccc1 [Acetanilide (Antifebrin)],0.247 ± 0.093
12,CCN(CC)CCOc1ccc(C(=C(Cl)c2ccccc2)c2ccccc2)cc1 [Clomifene citrate (Serophene)],0.271 ± 0.078
13,CCS(=O)(=O)CCn1c([N+](=O)[O-])cnc1C [tinidazole],0.219 ± 0.083
